From PMC5807360
Results are given in words; binding and its absence hold for the method and conditions named. In cells and extracts the contact can be indirect. For some assays here: A result given as binding can be weak or reduced; the word gives no strength. Sequences can lack the tags named with a protein.

B1: XEG1-HA (Phytophthora sojae glycoside hydrolase 12 protein XEG1, C-terminal HA tag) (protein, UniProt G4ZHR2 20-241)
chain: GDYCGQWDWAKSTNYIVYNNLWNKNAAASGSQCTGVDKISGSTIAWHTSYTWTGGAATEVKSYSNAALVFSKKQIKNIKSIPTKMKYSYSHSSGTFVADVSYDLFTSSTASGSNEYEIMIWLAAYGGAGPISSTGKAIATVTIGSNSFKLYKGPNGSTTVFSFVATKTITNFSADLQKFLSYLTKNQGLPSSQYLITLEAGTEPFVGTNAKMTVSSFSAAVN

How the values were obtained:
[1] = molecular target: T1, RLP23-GFP (Arabidopsis RLP23, GFP-tagged) (Arabidopsis thaliana) (UniProt O48849); assay: co-IP; Arabidopsis RLP23 with BAK1 in mock-treated N. benthamiana leaves, without nlp20 (Supplementary Fig. 11a)
T1 sequence: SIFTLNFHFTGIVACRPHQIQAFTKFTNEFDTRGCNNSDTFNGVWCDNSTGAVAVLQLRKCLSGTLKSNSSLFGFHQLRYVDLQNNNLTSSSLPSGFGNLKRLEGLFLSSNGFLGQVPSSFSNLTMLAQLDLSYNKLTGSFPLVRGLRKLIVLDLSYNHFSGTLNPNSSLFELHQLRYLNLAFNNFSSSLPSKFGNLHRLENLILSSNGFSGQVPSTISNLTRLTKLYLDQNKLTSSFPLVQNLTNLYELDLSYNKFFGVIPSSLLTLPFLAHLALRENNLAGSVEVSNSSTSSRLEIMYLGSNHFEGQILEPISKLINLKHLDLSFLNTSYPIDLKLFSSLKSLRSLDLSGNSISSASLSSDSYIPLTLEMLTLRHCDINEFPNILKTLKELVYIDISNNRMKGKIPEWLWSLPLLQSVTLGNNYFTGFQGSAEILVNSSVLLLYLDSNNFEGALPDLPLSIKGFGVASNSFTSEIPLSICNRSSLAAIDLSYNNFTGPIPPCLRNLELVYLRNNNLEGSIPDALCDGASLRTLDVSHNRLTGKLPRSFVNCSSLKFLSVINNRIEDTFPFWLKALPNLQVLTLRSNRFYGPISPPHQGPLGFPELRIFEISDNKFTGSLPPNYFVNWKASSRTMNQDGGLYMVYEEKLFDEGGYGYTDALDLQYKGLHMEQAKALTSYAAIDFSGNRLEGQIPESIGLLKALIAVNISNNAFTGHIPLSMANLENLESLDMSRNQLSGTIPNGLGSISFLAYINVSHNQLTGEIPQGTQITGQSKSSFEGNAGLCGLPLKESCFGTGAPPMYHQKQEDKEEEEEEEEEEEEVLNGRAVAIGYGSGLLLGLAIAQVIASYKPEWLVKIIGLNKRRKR

[2] = molecular target: T1, RLP23-GFP (Arabidopsis RLP23, GFP-tagged) (Arabidopsis thaliana); assay: co-IP; Arabidopsis RLP23 with BAK1 and SOBIR1 in N. benthamiana leaves; treatment with the ligand nlp20 (PpNLP) or mock (Supplementary Fig. 11a)
[3] = molecular target: RXEGL1^SP+LRR-GFP (signal peptide + LRR domain of RXEGL1, GFP-tagged) (Nicotiana benthamiana); assay: co-IP; proteins co-expressed in N. benthamiana leaves, isolated at 2 dai; total protein extract (150-200 mM NaCl, 50 mM Tris-HCl pH 7.5, 10 mM EDTA, 1.0% NP-40); GFP-trap A beads, 4 °C, 2 h; blots with anti-GFP and anti-HA
[4] = molecular target: RLP23^SP+LRR-GFP (signal peptide + LRR domain of Arabidopsis RLP23, GFP-tagged) (Arabidopsis thaliana); assay: as above
[5] = molecular target: RXEG1^SP+LRR-GFP (signal peptide + LRR domain of RXEG1, GFP-tagged) (Nicotiana benthamiana); assay: as above
[6] = molecular target: RXEGL1^SP+LRR-GFP (signal peptide + LRR domain of RXEGL1, GFP-tagged) (Nicotiana benthamiana); assay: co-IP; apoplastic fluid collected 2 dai from N. benthamiana leaves co-expressing XEG1 with GFP-tagged SP+LRR proteins; immunoprecipitation and western blotting
[7] = molecular target: RLP23^SP+LRR-GFP (signal peptide + LRR domain of Arabidopsis RLP23, GFP-tagged) (Arabidopsis thaliana); assay: as above
[8] = molecular target: RXEG1^SP+LRR-GFP (signal peptide + LRR domain of RXEG1, GFP-tagged) (Nicotiana benthamiana); assay: as above

Molecule	binding [1]	binding [2]	binding [3]	binding [4]	binding [5]	binding [6]	binding [7]	binding [8]
BAK1-RFP (Nicotiana benthamiana) (receptor)	binds weakly	binds						
B1			no binding	no binding	binds	no binding	no binding	binds
